Assay results taken from article PMC9296550.
No constants are given. Whether binding was seen depends on the method and setting. Binding seen in cells or lysates may run through a third protein. Some results given as binding are weak or reduced against the parent protein; the word gives no strength. Each block holds one molecule with its values, some of them ahead of it.

Sequences of proteins named here, by UniProt entry; tags and fusion partners are left off.
UniProt P18887: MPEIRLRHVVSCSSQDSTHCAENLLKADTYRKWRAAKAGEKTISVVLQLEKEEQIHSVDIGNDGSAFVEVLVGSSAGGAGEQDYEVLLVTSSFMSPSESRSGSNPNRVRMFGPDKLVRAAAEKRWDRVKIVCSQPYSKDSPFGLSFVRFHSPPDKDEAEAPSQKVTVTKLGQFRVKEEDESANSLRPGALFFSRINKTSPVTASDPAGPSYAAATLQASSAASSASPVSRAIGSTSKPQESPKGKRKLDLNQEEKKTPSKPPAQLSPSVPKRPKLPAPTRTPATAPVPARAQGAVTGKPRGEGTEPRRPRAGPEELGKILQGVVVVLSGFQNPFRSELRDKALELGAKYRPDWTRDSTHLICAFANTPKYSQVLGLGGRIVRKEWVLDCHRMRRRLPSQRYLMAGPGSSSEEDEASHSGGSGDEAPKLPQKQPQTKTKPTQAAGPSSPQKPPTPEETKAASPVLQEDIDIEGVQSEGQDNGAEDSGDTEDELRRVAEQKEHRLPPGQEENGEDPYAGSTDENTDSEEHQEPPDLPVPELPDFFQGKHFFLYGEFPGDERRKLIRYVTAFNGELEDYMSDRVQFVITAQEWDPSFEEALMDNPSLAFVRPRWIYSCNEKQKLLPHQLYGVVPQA

Molecular target: T1, Mre11 (human (endogenous in PEO1)) (UniProt P49959)
T1 sequence: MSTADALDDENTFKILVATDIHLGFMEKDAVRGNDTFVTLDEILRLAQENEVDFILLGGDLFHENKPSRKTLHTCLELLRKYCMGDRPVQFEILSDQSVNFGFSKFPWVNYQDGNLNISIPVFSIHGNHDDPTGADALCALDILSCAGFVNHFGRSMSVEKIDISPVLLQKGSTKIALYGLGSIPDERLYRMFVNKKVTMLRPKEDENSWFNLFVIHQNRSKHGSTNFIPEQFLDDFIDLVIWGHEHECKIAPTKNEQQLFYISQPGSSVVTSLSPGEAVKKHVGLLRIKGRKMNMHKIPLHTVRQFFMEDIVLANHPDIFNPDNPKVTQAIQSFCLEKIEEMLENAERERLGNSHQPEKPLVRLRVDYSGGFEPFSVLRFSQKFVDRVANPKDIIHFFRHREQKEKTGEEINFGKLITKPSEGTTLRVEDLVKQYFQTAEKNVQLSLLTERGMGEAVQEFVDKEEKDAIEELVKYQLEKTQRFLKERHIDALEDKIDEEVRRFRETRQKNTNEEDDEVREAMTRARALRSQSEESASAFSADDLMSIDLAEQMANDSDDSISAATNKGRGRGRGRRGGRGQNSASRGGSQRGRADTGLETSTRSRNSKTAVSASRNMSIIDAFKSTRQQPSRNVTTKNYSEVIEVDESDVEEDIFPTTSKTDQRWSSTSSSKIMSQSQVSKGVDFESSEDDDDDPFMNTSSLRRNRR
Test: co-IP; whole cell lysates of A2780, A2780cis, PEO1 and PEO4 in RIPA buffer with protease inhibitors; lysates incubated with the indicated antibodies overnight, protein A/G magnetic beads 2 h at room temperature; washed 4 times with PBS, 0.01% Tween 20; detected by blot

binding: binds
Molecule: XRCC1 (X-ray repair cross-complementing gene 1) (from UniProt P18887 1-633)

binding: binds
B1: LIG3 (protein, UniProt P49916 43-1009)
chain: LLHGHPLFLRRKPVLSFQGSHLRSRATYLVFLPGLHVGLCSGPCEMAEQRFCVDYAKRGTAGCKKCKEKIVKGVCRIGKVVPNPFSESGGDMKEWYHIKCMFEKLERARATTKKIEDLTELEGWEELEDNEKEQITQHIADLSSKAAGTPKKKAVVQAKLTTTGQVTSPVKGASFVTSTNPRKFSGFSAKPNNSGEAPSSPTPKRSLSSSKCDPRHKDCLLREFRKLCAMVADNPSYNTKTQIIQDFLRKGSAGDGFHGDVYLTVKLLLPGVIKTVYNLNDKQIVKLFSRIFNCNPDDMARDLEQGDVSETIRVFFEQSKSFPPAAKSLLTIQEVDEFLLRLSKLTKEDEQQQALQDIASRCTANDLKCIIRLIKHDLKMNSGAKHVLDALDPNAYEAFKASRNLQDVVERVLHNAQEVEKEPGQRRALSVQASLMTPVQPMLAEACKSVEYAMKKCPNGMFSEIKYDGERVQVHKNGDHFSYFSRSLKPVLPHKVAHFKDYIPQAFPGGHSMILDSEVLLIDNKTGKPLPFGTLGVHKKAAFQDANVCLFVFDCIYFNDVSLMDRPLCERRKFLHDNMVEIPNRIMFSEMKRVTKALDLADMITRVIQEGLEGLVLKDVKGTYEPGKRHWLKVKKDYLNEGAMADTADLVVLGAFYGQGSKGGMMSIFLMGCYDPGSQKWCTVTKCAGGHDDATLARLQNELDMVKISKDPSKIPSWLKVNKIYYPDFIVPDPKKAAVWEITGAEFSKSEAHTADGISIRFPRCTRIRDDKDWKSATNLPQLKELYQLSKEKADFTVVAGDEGSSTTGGSSEENKGPSGSAVSRKAPSKPSASTKKAEGKLSNSNSKDGNMQTAKPSAMKVGEKLATKSSPVKVGEKRKAADETLCQTKVLLDIFTGVRLYLPPSTPDFSRLRRYFVAFDGDLVQEFDMTSATHVLGSRDKNPAAQQVSPEWIWACIRKRRLVAPC
